{"source": "the supplement of paper PMC10403144", "note": "The other results are listed elsewhere or left out.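 Rule for the calls: active = mitochondrial OCR inhibition above 30% at 1 uM; inactive = 30% or less.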 Many values rest on one well or one pass, so single values are uncertain."}
{"tested_on": "Toxoplasma gondii RH tachyzoites", "assay": "inhibition of mitochondrial O2 consumption rate (% inhibition (relative to pre-injection OCR and atovaquone/antimycin A control)); higher = stronger ETC inhibition", "settings": "1 µM; injection port (sequential injection order): A"}
{"smiles": "Clc1cccc(C(c2ccc(CN3CCNCC3)cc2)n2ccnc2)c1", "note": "(stereo not drawn)", "inhibition of mitochondrial O2 consumption rate": "inactive: -3.6"}
{"smiles": "CS(=O)(=O)c1ccccc1C(=O)N(Cc1ccccc1)c1ccccc1", "inhibition of mitochondrial O2 consumption rate": "inactive: -1.71"}
{"smiles": "NS(=O)(=O)c1cccc(-c2ccc3ncc(N4CCOCC4)nc3c2)c1", "inhibition of mitochondrial O2 consumption rate": "inactive: -13.1"}
{"smiles": "O=C(Nc1ccccc1-c1nc2c(C(=O)O)cccc2o1)c1ccccc1", "inhibition of mitochondrial O2 consumption rate": "inactive: -8.59"}
{"smiles": "CNc1snc(C)c1C(=O)NCCOc1ccc(OC)cc1", "inhibition of mitochondrial O2 consumption rate": "inactive: -4.19"}
{"smiles": "CC(C(=O)Nc1ccc2oc(-c3ccncc3)nc2c1)c1ccccc1", "note": "(stereo not drawn)", "inhibition of mitochondrial O2 consumption rate": "inactive: 1.99"}
{"smiles": "COc1ccc(CCN2CCC(NCc3cccc(N(C)C)c3)CC2)cc1", "inhibition of mitochondrial O2 consumption rate": "inactive: -27.4"}
{"smiles": "O=C(NCc1nnc2n1CCCCC2)c1ccc(-c2ccc(F)cc2)o1", "inhibition of mitochondrial O2 consumption rate": "inactive: -2.92"}
{"smiles": "O=C(Nc1nnc(-c2ccc(Cl)cc2)o1)c1cccc(C(F)(F)F)c1", "inhibition of mitochondrial O2 consumption rate": "inactive: 2.3"}
{"tested_on": "Toxoplasma gondii RH tachyzoites", "assay": "inhibition of mitochondrial O2 consumption rate (% inhibition (relative to pre-injection OCR and atovaquone/antimycin A control)); higher = stronger ETC inhibition", "settings": "1 µM; injection port (sequential injection order): B"}
{"smiles": "CCOc1ccc(OCC(=O)Nc2cc(C)cc(C)c2)cc1", "inhibition of mitochondrial O2 consumption rate": "inactive: -7.33"}
{"smiles": "CN1CCCN(C(c2ccccc2)c2ccc(Cl)cc2)CC1", "note": "(stereo not drawn)", "inhibition of mitochondrial O2 consumption rate": "inactive: -1.85"}
{"smiles": "CC[C@@H]([C@H](C)O)n1ncn(-c2ccc(N3CCN(c4ccc(OC[C@@H]5CO[C@@](Cn6cncn6)(c6ccc(F)cc6F)C5)cc4)CC3)cc2)c1=O", "inhibition of mitochondrial O2 consumption rate": "inactive: -6.81"}
{"smiles": "Cc1cccc(Cn2ccc(NC(=O)c3ccc4c(c3)OCO4)n2)c1", "inhibition of mitochondrial O2 consumption rate": "inactive: -2.61"}
{"smiles": "CNC(=O)c1cc(S(=O)(=O)N2CCN(c3ccccn3)CC2)cs1", "inhibition of mitochondrial O2 consumption rate": "inactive: -5.97"}
{"smiles": "Cc1ccc(-c2cc(C(=O)Nc3cccnc3)c3cc(Br)ccc3n2)cc1", "inhibition of mitochondrial O2 consumption rate": "inactive: -27.2"}
{"smiles": "Cc1cc(Nc2ccc(C(F)(F)F)cc2)n2ccnc2n1", "inhibition of mitochondrial O2 consumption rate": "inactive: 1.44"}
{"smiles": "c1ccc(-c2cc(N3CCCCC3)c3ccccc3n2)nc1", "inhibition of mitochondrial O2 consumption rate": "inactive: -6.74"}
{"smiles": "CNCCC(Oc1ccc(C(F)(F)F)cc1)c1ccccc1", "note": "(stereo not drawn)", "inhibition of mitochondrial O2 consumption rate": "inactive: -2.19"}
{"smiles": "C[C@H](C(N)=O)N1CCCC[C@@H]1c1ccc(OCc2cccc(F)c2)cc1", "inhibition of mitochondrial O2 consumption rate": "inactive: -6.64"}
{"smiles": "Cn1ncc2c(N3CCOCC3)nc(NCCc3c[nH]c4ccccc34)nc21", "inhibition of mitochondrial O2 consumption rate": "inactive: 3.18"}
{"smiles": "COc1cccc(OC)c1C(=O)Nc1ccc(Cl)c(-c2nc3ccccc3s2)c1", "inhibition of mitochondrial O2 consumption rate": "inactive: -20"}
{"smiles": "COc1cc2ncnc(NC3CCN(Cc4ccccc4)CC3)c2cc1OC", "inhibition of mitochondrial O2 consumption rate": "inactive: -8.73"}
{"smiles": "Cc1ccc(Oc2ccc(NC(=O)CNc3ccccc3N3CCCC3=O)cc2)cc1", "inhibition of mitochondrial O2 consumption rate": "inactive: 3.17"}
{"tested_on": "Toxoplasma gondii RH tachyzoites", "assay": "inhibition of mitochondrial O2 consumption rate (% inhibition (relative to pre-injection OCR and atovaquone/antimycin A control)); higher = stronger ETC inhibition", "settings": "1 µM; injection port (sequential injection order): C"}
{"smiles": "Nc1cccnc1Nc1ccc(Cl)cc1", "inhibition of mitochondrial O2 consumption rate": "inactive: -20.4"}
{"smiles": "O=C(NCCc1ccn(-c2ccccc2)n1)C1CCCCC1", "inhibition of mitochondrial O2 consumption rate": "inactive: -21.8"}
{"smiles": "CC(=O)NCC1CN(c2ccc(-c3ccc(CNCc4cn[nH]n4)cc3)c(F)c2)C(=O)O1", "note": "(stereo not drawn)", "inhibition of mitochondrial O2 consumption rate": "inactive: 4.14"}
{"smiles": "Cc1cc(C)nc(-n2nc(C)cc2Nc2ccccc2)n1", "inhibition of mitochondrial O2 consumption rate": "inactive: -1.15"}
{"smiles": "CNC(=O)CNc1nc(-c2ccccn2)nc2scc(-c3ccccc3)c12", "inhibition of mitochondrial O2 consumption rate": "inactive: -28.8"}
{"smiles": "C[C@H](c1ccc2c(c1)CCCC2)N(C)c1ncc2c(N)nc(N)nc2n1", "inhibition of mitochondrial O2 consumption rate": "inactive: -3.96"}
{"smiles": "NC(=O)c1cc(-c2ccsc2)ccc1OCCOc1ccccc1", "inhibition of mitochondrial O2 consumption rate": "inactive: -25.9"}
{"smiles": "COc1ccc(C2=NCCN2)cc1-c1cn(-c2cccc(C3=NCCN3)c2)nn1", "inhibition of mitochondrial O2 consumption rate": "inactive: -13.4"}
{"smiles": "Nc1ncc(-c2cn[nH]c2)cc1-c1nc2cc(Cl)cnc2[nH]1", "inhibition of mitochondrial O2 consumption rate": "inactive: -4.3"}
{"smiles": "c1cc(C2=NCCN2)cc(-c2cc(-c3ccc(C4=NCCN4)cc3)no2)c1", "inhibition of mitochondrial O2 consumption rate": "inactive: -21.4"}
{"smiles": "Cc1cc(NC(=O)c2ccc(Oc3ccc(Cl)cc3O)o2)no1", "inhibition of mitochondrial O2 consumption rate": "inactive: -5.5"}
{"smiles": "CNc1cc(C)nc(C2CN(C(=O)c3n[nH]c4ccccc34)CCO2)c1", "note": "(stereo not drawn)", "inhibition of mitochondrial O2 consumption rate": "inactive: -20"}
{"smiles": "Clc1ccc(Cl)c(CO[C@H]2CCCC[C@@H]2n2ccnc2)c1", "inhibition of mitochondrial O2 consumption rate": "inactive: -12.2"}
{"smiles": "CCc1ccc(C(NCc2nc(N)nc(N(C)C)n2)C(C)C)cc1", "note": "(stereo not drawn)", "inhibition of mitochondrial O2 consumption rate": "inactive: -21"}
{"smiles": "CC(C)(C(=O)Nc1ccc(F)cc1)n1cc(-c2ccccc2F)cn1", "inhibition of mitochondrial O2 consumption rate": "inactive: 2.46"}
